Laboratory results: PubChem BioAssay AID330 (DTP/NCI, 2004)
The list is a part of this screen's results and no random one: it is rich in T/C values a quarter to a half above the control, in often repeated tests (any T/C) and in doses without a T/C. Further doses and runs are listed elsewhere. T/C is the treated group as % of the vehicle group. Some entries give survivors of the animals treated and no T/C: the source files T/C as zero there, which appears to mark a toxic dose or a test without result, not a measured value. Some doses without a T/C left all or most animals alive at the check, yet need not have been tolerated: survival well below the control is almost never listed, so the zero probably covers shortened survival too. Counts of survivors are from the toxicity check (mostly the fifth day) where no day follows; animals may have died later. Schedules are NCI's codes, taken here to give the interval after Q, in days (D) or hours (H), and the number of doses after X. Some entries hold several experiments; their values stand side by side, smallest first. For survival time, this PubChem deposit counts one and a half times the control or more as active, and values a quarter to a half above the control carry no call in these data; other NCI protocols may use other cut-offs.

System: P388 leukemia ip, CD2F1 mice, survival T/C
Experiment: NCI In Vivo Anticancer Drug Screen. Data for tumor model P388 Leukemia (intraperitoneal) in CD2F1 (CDF1) mice
Conditions: T/C endpoint: median survival time, higher T/C = longer survival
[1] = dose: 100.0 mg/kg/injection, schedule: Q01DX009 (ip), vehicle: Klucel (hydroxypropylcellulose) (HPC)
[2] = dose: 200.0 mg/kg/injection, schedule: Q01DX009 (ip), vehicle: Klucel (hydroxypropylcellulose) (HPC)
[3] = dose: 6.25 mg/kg/injection, schedule: Q01DX009 (ip), vehicle: saline
[4] = dose: 25.0 mg/kg/injection, schedule: Q01DX009 (ip), vehicle: saline with Tween-80
[5] = dose: 50.0 mg/kg/injection, schedule: Q01DX009 (ip), vehicle: saline with Tween-80
[6] = dose: 100.0 mg/kg/injection, schedule: Q01DX009 (ip), vehicle: saline with Tween-80
[7] = dose: 200.0 mg/kg/injection, schedule: Q01DX009 (ip), vehicle: saline with Tween-80
[8] = dose: 200.0 mg/kg/injection, schedule: Q01DX005 (ip), vehicle: saline with Tween-80
[9] = dose: 25.0 mg/kg/injection, schedule: Q01DX009 (ip), vehicle: saline
[10] = dose: 360.0 micrograms/kg/injection, schedule: Q01DX009 (ip), vehicle: saline
[11] = dose: 600.0 micrograms/kg/injection, schedule: Q01DX009 (ip), vehicle: saline
[12] = dose: 50.0 mg/kg/injection, schedule: Q01DX009 (ip), vehicle: saline

## CCN(CC)CCNC(=S)NNc1nc(C)ccc1[N+](=O)[O-]
[1]
  survivor count: 6 of 6
[2]
  survivor count: 2 of 6

## Cc1cccc(N(CCOS(C)(=O)=O)CCOS(C)(=O)=O)c1
dose: 3.12 mg/kg/injection, schedule: Q01DX009 (ip), vehicle: saline
  T/C: 125 % of control
[3]
  T/C: 141 % of control
[4]
  survivor count: 5 of 6
[5]
  survivor count: 0 of 6
[6]
  survivor count: 0 of 6
[7]
  survivor count: 0 of 6

## CN1CCC2(CC1)OCCCO2
[8]
  survivor count: 4 of 6
dose: 400.0 mg/kg/injection, schedule: Q01DX005 (ip), vehicle: saline with Tween-80
  survivor count: 0 of 6
dose: 500.0 mg/kg/injection, schedule: Q01DX001 (ip), vehicle: saline with Tween-80
  survivor count: 0 of 6
dose: 1000.0 mg/kg/injection, schedule: Q01DX001 (ip), vehicle: saline with Tween-80
  survivor count: 0 of 6
dose: 2000.0 mg/kg/injection, schedule: Q01DX001 (ip), vehicle: saline with Tween-80
  survivor count: 0 of 6

## NC(=S)N/N=C\c1nccc2c(N)cccc12
[3]
  T/C: 144 % of control
dose: 9.4 mg/kg/injection, schedule: Q04DX003 (ip), vehicle: saline
  T/C: 136 % of control
[4]
  T/C: 136 and 141 % of control
[9]
  T/C: 135 % of control
dose: 37.5 mg/kg/injection, schedule: Q04DX003 (ip), vehicle: saline
  T/C: 146 % of control
dose: 75.0 mg/kg/injection, schedule: Q01DX009 (ip), vehicle: saline with Tween-80
  T/C: 130 % of control
dose: 75.0 mg/kg/injection, schedule: Q01DX009 (ip), vehicle: saline
  survivor count: 5 of 6
[6]
  survivor count: 9 of 10
dose: 150.0 mg/kg/injection, schedule: Q01DX009 (ip), vehicle: saline with Tween-80
  survivor count: 8 of 10
[7]
  survivor count: 7 of 10

## O=C=N[Si](c1ccccc1)(c1ccccc1)c1ccccc1
dose: 400.0 mg/kg/injection, schedule: Q01DX001 (ip), vehicle: saline with Tween-80
  survivor count: 5 of 6

## Cc1cc(OC2OC(CO)C(O)C(O)C2O)ccc1O (stereo unspecified)
[1]
  survivor count: 6 of 6

## COc1ccc(/C(C#N)=C2\OC(=O)c3ccccc32)cc1OC
[4]
  survivor count: 6 of 6
[5]
  survivor count: 6 of 6
[6]
  survivor count: 5 of 6
[7]
  survivor count: 6 of 6

## CCN(CC)P(=O)(N1CC1)N1CC1
dose: 6.25 mg/kg/injection, schedule: Q04DX003 (ip), vehicle: saline
  T/C: 145 % of control

## Cn1ncc2c(N)ncnc21
[6]
  survivor count: 6 of 6
[7]
  survivor count: 1 of 6
dose: 400.0 mg/kg/injection, schedule: Q04DX003 (ip), vehicle: saline with Tween-80
  survivor count: 1 of 6

## O=C1c2cccc3c([N+](=O)[O-])ccc(c23)C(=O)N1NCCO
[8]
  survivor count: 0 of 6

## COc1ccc(-c2cc(=O)c3ccc4cc(OC)c(OC)cc4c3o2)cc1
dose: 25.0 mg/kg/injection, schedule: Q01DX009 (ip), vehicle: other
  survivor count: 6 of 6
dose: 50.0 mg/kg/injection, schedule: Q01DX009 (ip), vehicle: other
  survivor count: 6 of 6

## CC1C=CC(c2ccccc2)C2C(=O)OC(=O)C12 (stereo unspecified)
dose: 240.0 mg/kg/injection, schedule: Q01DX005 (ip), vehicle: saline with Tween-80
  survivor count: 0 of 6

## CCC(=O)[O-].CCC(=O)[O-].CCC(=O)[O-].CCC(=O)[O-].O=S(=O)(O)O.[Re].[Re]
dose: 300.0 mg/kg/injection, schedule: Q01DX009 (ip), vehicle: suspension in saline
  survivor count: 3 of 6
dose: 500.0 mg/kg/injection, schedule: Q01DX009 (ip), vehicle: suspension in saline
  survivor count: 1 of 6

## CC(=O)OC1(C)CC(C)C(=O)C(C(O)CC2CC(=O)NC(=O)C2)C1 (stereo unspecified)
dose: 130.0 micrograms/kg/injection, schedule: Q01DX009 (ip), vehicle: saline
  T/C: 137 % of control
[10]
  T/C: 149 % of control
  survivor count: 8 of 8
[11]
  T/C: 146 % of control
  survivor count: 7 of 7
dose: 1000.0 micrograms/kg/injection, schedule: Q01DX009 (ip), vehicle: saline
  survivor count: 7 of 8 and 8 of 8
dose: 1200.0 micrograms/kg/injection, schedule: Q04DX003 (ip), vehicle: saline
  T/C: 125 % of control
dose: 2160.0 micrograms/kg/injection, schedule: Q04DX003 (ip), vehicle: saline
  T/C: 131 % of control
dose: 6000.0 micrograms/kg/injection, schedule: Q04DX003 (ip), vehicle: saline
  T/C: 128 % of control

## OCC1OC(n2cnc3c2NC=NC[C@H]3O)C(O)C1O (stereo partly specified)
dose: 3.13 mg/kg/injection, schedule: Q01DX005 (ip), vehicle: saline
  survivor count: 5 of 5
dose: 6.25 mg/kg/injection, schedule: Q01DX005 (ip), vehicle: saline
  survivor count: 5 of 5
[3]
  survivor count: 5 of 5
dose: 12.5 mg/kg/injection, schedule: Q01DX005 (ip), vehicle: saline
  survivor count: 5 of 5
dose: 12.5 mg/kg/injection, schedule: Q01DX009 (ip), vehicle: saline
  survivor count: 5 of 5
dose: 25.0 mg/kg/injection, schedule: Q01DX005 (ip), vehicle: saline
  survivor count: 5 of 5
[9]
  survivor count: 5 of 5 and 6 of 6
dose: 50.0 mg/kg/injection, schedule: Q01DX005 (ip), vehicle: saline
  survivor count: 5 of 5
[12]
  survivor count: 4 of 6
dose: 100.0 mg/kg/injection, schedule: Q01DX009 (ip), vehicle: saline
  survivor count: 2 of 6

## CC(=O)/C(=C\c1ccc(Cl)cc1)C(=O)CCN(C)C
dose: 200.0 mg/kg/injection, schedule: Q01DX005 (ip), vehicle: saline
  survivor count: 2 of 5

## CCn1c(=S)[nH]c2sc3c(c2c1=O)CCCCC3
dose: 60.0 mg/kg/injection, schedule: Q01DX005 (ip), vehicle: saline with Tween-80
  survivor count: 6 of 6

## Cc1ccc2c(c1)nc(-c1ccccn1)n2CCc1ccccn1
dose: 400.0 mg/kg/injection, schedule: Q04DX002 (ip), vehicle: Klucel (hydroxypropylcellulose) (HPC)
  survivor count: 6 of 6

## FC(F)(F)c1ccc2c(c1)N(CCCN1CCN(CCCl)CC1)c1ccccc1S2
dose: 50.0 mg/kg/injection, schedule: Q04DX003 (ip), vehicle: saline
  survivor count: 6 of 6
dose: 100.0 mg/kg/injection, schedule: Q04DX003 (ip), vehicle: saline
  survivor count: 5 of 6

## CCOc1cccc(/C=C2/C(=O)N(Cc3ccco3)SC2=S)c1O
dose: 6.25 mg/kg/injection, schedule: Q01DX009 (ip), vehicle: Klucel (hydroxypropylcellulose) (HPC)
  survivor count: 6 of 6
dose: 50.0 mg/kg/injection, schedule: Q01DX009 (ip), vehicle: Klucel (hydroxypropylcellulose) (HPC)
  survivor count: 6 of 6
[1]
  survivor count: 6 of 6
[2]
  survivor count: 3 of 6

## Cc1cccc(-[n+]2noc(N)n2)c1
dose: 100.0 mg/kg/injection, schedule: Q01DX009 (ip), vehicle: water
  survivor count: 5 of 6

## CC1CC(O)C(CN(C)C)C(C)(C)C1 (stereo unspecified)
[8]
  survivor count: 0 of 6

## COC1OC(CO)C(O)C(NC(=O)N(C)N=O)C1O (stereo unspecified)
[12]
  T/C: 145 and 147 % of control

## C=C(C)[C@]12CC(C)C34OC(/C=C\C=C\CCCCCCCCC)(O[C@@H]1[C@@H]3[C@@H]1O[C@]1(CO)[C@@H](O)[C@]1(O)C(=O)C(C)=C[C@@H]41)O2 (stereo partly specified)
dose: 0.75 mg/kg/injection, schedule: Q01DX009 (ip), vehicle: alcohol
  T/C: 135 % of control
dose: 3.0 mg/kg/injection, schedule: Q01DX009 (ip), vehicle: alcohol
  survivor count: 0 of 6

## CC[N+](CC)(CC)c1ccccc1
dose: 50.0 mg/kg/injection, schedule: Q04DX002 (ip), vehicle: saline
  survivor count: 0 of 6
dose: 100.0 mg/kg/injection, schedule: Q04DX002 (ip), vehicle: saline
  survivor count: 0 of 6

## CC([NH-])C(=O)O.O=C(O)CN(CC(=O)O)CC(=O)O.[Co+2]
dose: 200.0 mg/kg/injection, schedule: Q01DX009 (ip), vehicle: saline
  survivor count: 3 of 6
dose: 300.0 mg/kg/injection, schedule: Q01DX009 (ip), vehicle: saline
  survivor count: 1 of 6
